Laboratory results taken from paper PMC5688200, “Overexpression of the transcription factor NF-YC9 confers abscisic acid hypersensitivity in Arabidopsis”.
Results are given in words; binding and its absence hold for the method and conditions named. For part of these data: In cells and extracts the contact can be indirect. Some binding calls cover weakened binding; strength is not graded here. Tags and fused reporters may be left off the sequences shown. One block for each binder: values may come before it.

Assays:
[1] = target: T1, ABA-…5 (ABI5) fused to the GAL4 binding domain (BD-ABI5) (Arabidopsis thaliana) (UniProt Q9SJN0); assay: two-hybrid; GAL4 system (Clontech), yeast strain AH109; growth on SD-4 medium (lacking Leu, Trp, His, Ade), 5-7 days at 30 °C
T1 sequence: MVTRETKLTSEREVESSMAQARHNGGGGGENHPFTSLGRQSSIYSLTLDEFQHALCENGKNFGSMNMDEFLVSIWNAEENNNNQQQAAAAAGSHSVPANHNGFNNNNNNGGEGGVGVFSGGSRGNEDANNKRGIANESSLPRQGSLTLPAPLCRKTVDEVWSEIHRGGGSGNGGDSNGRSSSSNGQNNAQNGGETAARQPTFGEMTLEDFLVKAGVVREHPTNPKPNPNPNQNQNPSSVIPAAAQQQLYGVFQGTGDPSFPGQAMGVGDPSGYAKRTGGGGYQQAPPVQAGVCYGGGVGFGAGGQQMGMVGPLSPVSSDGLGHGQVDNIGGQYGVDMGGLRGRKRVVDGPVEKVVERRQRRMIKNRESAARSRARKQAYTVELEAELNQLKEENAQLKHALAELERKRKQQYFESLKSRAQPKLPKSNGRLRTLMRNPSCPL

[2] = target: T2, ABI5-NLuc (Arabidopsis thaliana) (UniProt Q9SJN0); assay: split reporter; luciferase complementation imaging (LCI) in N. benthamiana leaves after Agrobacterium infiltration; luminescence with 0.5 mM luciferin, CCD imaging
T2 sequence: T1 sequence

[3] = target: T3, ABI5-nYFP (Arabidopsis thaliana) (UniProt Q9SJN0); assay: split reporter; BiFC (split YFP) in Arabidopsis Col-0 protoplasts; confocal microscopy
T3 sequence: T1 sequence

- binding [1]: binds
B1: NF-YC9 fused with the GAL4 activation domain (AD-NF-YC9) (protein, UniProt Q8L4B2 1-231)
chain: MDQQDHGQSGAMNYGTNPYQTNPMSTTAATVAGGAAQPGQLAFHQIHQQQQQQQLAQQLQAFWENQFKEIEKTTDFKNHSLPLARIKKIMKADEDVRMISAEAPVVFARACEMFILELTLRSWNHTEENKRRTLQKNDIAAAVTRTDIFDFLVDIVPREDLRDEVLGSIPRGTVPEAAAAGYPYGYLPAGTAPIGNPGMVMGNPGGAYPPNPYMGQPMWQQQAPDQPDQEN

- binding [2]: binds
B2: NF-YC9-CLuc (protein, UniProt Q8L4B2 1-231)
chain: B1 chain

- binding [3]: binds
B3: cYFP-NF-YC9 (protein, UniProt Q8L4B2 1-231)
chain: B1 chain
